What was measured:
[1] = 177Lu labelling (radio-HPLC); conditions: for radiochemical yield (highest, as stated in text): Lu-177, pH 5.0, 95 °C, 20–40 min
[2] = 64Cu labelling (radio-HPLC)
[3] = Cu-64, pH 6.05, 0 min (upon mixing at room temperature)
[4] = Cu-64, pH 6.05, 40 °C, 20 min (text: 30 min)

| SMILES | radiochemical yield (overall yield) ([1]; Lu-177, pH 5.01, 95 °C, 5 min) [%] | radiochemical yield (overall yield) ([1]; Lu-177, pH 5.01, 95 °C, 10 min) [%] | radiochemical yield (overall yield) ([1]; Lu-177, pH 5.01, 95 °C, 20 min) [%] | radiochemical yield (overall yield) ([1]; Lu-177, pH 5.01, 95 °C, 30 min) [%] | radiochemical yield (overall yield) ([1]; Lu-177, pH 5.01, 95 °C, 40 min) [%] | radiochemical yield (overall yield) [2, 3] | radiochemical yield (overall yield) [2, 4] [%] | radiochemical yield (overall yield) ([1]; Lu-177, pH 7.00, 95 °C, 20 min) [%] | radiochemical yield (highest, as stated in text) [1] | also measured |
| --- | --- | --- | --- | --- | --- | --- | --- | --- | --- | --- |
| O=C(O)CN1CCN(CC(=O)O)CCN(CC(=O)O)CCN(CC(=O)O)CC1 [DOTA, 1,4,7,10-tetraazacyclododecane-1,4,7,10-tetraacetic acid] | 22.25 | 27.86 | 33.93 | 36.14 | 38.17 | 88.99% | 95.06 | – | – | – |
| CC[C@H]1CN(CC(=O)O)[C@@H](CC)CN(CC(=O)O)[C@@H](CC)CN(CC(=O)O)[C@@H](CC)CN1CC(=O)O [L2] | 71.10 | 85.50 | 91.92 | 94.33 | 95.47 | 100% | 100 | 97.24 | – | radiochemical yield (overall yield) ([1]; Lu-177, pH 5.01, 85 °C, 10 min): 75.40%; radiochemical yield (overall yield) ([1]; Lu-177, pH 5.01, 85 °C, 20 min): 82.68%; radiochemical yield (overall yield) ([1]; Lu-177, pH 5.01, 85 °C, 40 min): 86.23% |
| O=C([O-])CN1CCN(CC(=O)[O-])CCN(CC(=O)[O-])CCN(CC(=O)[O-])CC1.[177Lu+3].[H+] [[^177LuDOTA]^−, reference compound] | – | – | – | – | – | – | – | – | 38% | – |
| CC[C@H]1CN(CC(=O)[O-])[C@@H](CC)CN(CC(=O)[O-])[C@@H](CC)CN(CC(=O)[O-])[C@@H](CC)CN1CC(=O)[O-].[177Lu+3] [[^177LuL2]^−] | – | – | – | – | – | – | – | 97 | over 95% | temperature required to obtain the 177Lu complex ([1]; Lu-177): at least 80 °C |
| O=C([O-])CN1CCN(CC(=O)O)CCN(CC(=O)[O-])CCN(CC(=O)O)CC1.[64Cu+2] [^64CuDOTA, reference compound] | – | – | – | – | – | 89% | 95 | – | – | – |
| CC[C@H]1CN(CC(=O)O)[C@@H](CC)CN(CC(=O)[O-])[C@@H](CC)CN(CC(=O)O)[C@@H](CC)CN1CC(=O)[O-].[64Cu+2] [^64CuL2] | – | – | – | – | – | near quantitative | 100 | – | – | – |
